The other results are listed elsewhere or left out.
These targets were tested with c1cn2cc(-c3ccc4cn[nH]c4c3)nc(Nc3ccc(N4CCOCC4)cc3)c2n1 [entospletinib] (assay: log2 fold change, soluble protein after heating vs DMSO (PISA); higher = thermal stabilisation; K562 cells, 10 uM, 30 min; active = over 0.2 and 3.5 SD of the protein, either way, in both replicates (recomputed)).
Summary of the method: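 K562 cells (2×10^6 cells/mL) were treated with 10 μM compound for 30 min, and aliquots were heated for 3 min over 48°C-58°C. Pooled aliquots were extracted in PBS with 0.5% NP-40 at 4°C, and the supernatant after 21,000xg for 90 min was measured by TMTpro 16plex LC-MS/MS with channel sums equalised. Reported thermal stability, relative to control samples and from duplicates, is a log2 fold change.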

Protein sequences, listed by entry. Tags and fused reporters are not part of them. Lines headed by an entry give the natural chain unless they say otherwise; changes in a name come on top.
UniProt Q92506: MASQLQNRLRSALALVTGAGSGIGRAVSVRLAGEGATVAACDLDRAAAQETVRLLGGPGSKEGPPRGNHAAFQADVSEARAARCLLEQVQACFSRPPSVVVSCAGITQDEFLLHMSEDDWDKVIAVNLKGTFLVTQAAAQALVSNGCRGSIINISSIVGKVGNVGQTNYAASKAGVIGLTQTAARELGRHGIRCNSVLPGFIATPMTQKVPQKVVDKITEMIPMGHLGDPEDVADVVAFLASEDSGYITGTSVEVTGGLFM
UniProt Q9NX55: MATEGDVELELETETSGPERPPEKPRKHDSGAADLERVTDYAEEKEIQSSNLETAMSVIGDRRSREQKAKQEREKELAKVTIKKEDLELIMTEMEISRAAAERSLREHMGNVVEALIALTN
UniProt O43390: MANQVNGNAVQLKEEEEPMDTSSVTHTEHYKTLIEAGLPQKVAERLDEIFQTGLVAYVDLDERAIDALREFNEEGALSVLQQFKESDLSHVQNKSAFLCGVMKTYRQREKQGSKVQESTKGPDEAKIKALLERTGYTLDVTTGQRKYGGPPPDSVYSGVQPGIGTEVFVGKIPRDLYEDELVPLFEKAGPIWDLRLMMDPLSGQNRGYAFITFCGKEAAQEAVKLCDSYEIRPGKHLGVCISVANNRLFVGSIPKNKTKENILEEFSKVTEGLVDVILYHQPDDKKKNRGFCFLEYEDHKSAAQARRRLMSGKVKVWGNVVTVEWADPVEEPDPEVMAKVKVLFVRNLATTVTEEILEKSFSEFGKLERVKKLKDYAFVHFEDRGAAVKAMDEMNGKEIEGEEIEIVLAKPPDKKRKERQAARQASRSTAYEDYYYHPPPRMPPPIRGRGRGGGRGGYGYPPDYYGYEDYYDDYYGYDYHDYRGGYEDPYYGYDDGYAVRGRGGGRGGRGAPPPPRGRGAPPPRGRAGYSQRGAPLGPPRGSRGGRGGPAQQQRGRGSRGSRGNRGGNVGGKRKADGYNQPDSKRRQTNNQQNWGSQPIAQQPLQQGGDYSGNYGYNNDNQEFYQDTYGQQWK
UniProt Q2TB90: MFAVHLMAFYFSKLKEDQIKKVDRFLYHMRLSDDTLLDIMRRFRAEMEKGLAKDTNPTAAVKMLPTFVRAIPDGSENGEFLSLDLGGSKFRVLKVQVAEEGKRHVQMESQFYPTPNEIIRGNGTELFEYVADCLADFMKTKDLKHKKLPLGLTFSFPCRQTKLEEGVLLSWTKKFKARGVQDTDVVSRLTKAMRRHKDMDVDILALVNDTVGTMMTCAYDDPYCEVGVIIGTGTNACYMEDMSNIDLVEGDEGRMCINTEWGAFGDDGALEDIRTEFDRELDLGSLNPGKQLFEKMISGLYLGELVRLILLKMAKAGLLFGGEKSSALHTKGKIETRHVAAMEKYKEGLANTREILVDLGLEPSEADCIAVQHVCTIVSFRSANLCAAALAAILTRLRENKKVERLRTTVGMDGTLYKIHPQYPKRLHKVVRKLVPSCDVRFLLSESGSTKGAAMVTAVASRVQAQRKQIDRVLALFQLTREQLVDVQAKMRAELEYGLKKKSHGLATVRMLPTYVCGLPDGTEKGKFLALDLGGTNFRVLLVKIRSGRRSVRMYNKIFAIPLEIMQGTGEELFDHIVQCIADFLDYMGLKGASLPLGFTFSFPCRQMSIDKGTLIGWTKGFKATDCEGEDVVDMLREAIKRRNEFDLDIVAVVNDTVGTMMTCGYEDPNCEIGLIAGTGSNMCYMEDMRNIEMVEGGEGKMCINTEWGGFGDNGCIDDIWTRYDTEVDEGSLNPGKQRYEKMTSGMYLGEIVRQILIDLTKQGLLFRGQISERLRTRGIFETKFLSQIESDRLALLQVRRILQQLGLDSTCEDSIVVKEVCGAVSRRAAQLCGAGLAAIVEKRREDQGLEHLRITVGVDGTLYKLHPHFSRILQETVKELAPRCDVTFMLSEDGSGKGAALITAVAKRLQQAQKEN
UniProt Q9P2D0: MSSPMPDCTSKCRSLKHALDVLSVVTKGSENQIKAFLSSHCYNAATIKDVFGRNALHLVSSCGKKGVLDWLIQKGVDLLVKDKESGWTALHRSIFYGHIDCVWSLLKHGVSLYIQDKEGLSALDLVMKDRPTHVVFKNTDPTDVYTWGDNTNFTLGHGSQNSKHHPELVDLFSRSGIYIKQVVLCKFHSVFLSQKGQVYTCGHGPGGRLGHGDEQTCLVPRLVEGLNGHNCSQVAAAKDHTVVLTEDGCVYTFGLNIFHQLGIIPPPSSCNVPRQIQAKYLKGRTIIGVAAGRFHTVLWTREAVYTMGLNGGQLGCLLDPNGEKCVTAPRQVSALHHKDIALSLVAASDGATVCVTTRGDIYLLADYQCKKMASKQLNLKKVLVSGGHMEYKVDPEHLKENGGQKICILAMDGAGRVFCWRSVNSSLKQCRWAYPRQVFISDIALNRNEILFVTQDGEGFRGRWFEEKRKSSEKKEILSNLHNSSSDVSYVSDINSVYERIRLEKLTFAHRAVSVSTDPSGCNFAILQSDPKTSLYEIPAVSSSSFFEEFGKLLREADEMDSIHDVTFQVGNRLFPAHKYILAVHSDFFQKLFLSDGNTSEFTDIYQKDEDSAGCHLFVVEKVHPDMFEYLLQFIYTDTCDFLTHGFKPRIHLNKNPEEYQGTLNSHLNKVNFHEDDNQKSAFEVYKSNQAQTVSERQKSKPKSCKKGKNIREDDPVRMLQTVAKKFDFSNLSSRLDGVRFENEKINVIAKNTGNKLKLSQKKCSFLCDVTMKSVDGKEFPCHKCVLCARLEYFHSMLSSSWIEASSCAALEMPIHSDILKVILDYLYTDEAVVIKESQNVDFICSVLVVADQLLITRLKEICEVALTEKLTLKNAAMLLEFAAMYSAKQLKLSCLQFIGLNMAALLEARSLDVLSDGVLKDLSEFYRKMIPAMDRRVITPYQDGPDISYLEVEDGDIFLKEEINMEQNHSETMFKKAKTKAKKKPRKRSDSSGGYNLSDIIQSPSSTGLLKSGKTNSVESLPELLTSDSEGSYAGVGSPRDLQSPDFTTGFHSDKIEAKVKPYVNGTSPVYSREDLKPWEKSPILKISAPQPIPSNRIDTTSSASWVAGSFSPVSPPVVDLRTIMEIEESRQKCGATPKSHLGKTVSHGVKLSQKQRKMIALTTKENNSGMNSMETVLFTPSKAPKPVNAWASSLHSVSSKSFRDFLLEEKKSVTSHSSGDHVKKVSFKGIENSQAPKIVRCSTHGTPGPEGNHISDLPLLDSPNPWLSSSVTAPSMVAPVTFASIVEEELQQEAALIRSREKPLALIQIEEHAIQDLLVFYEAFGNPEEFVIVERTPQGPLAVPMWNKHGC
UniProt P51659: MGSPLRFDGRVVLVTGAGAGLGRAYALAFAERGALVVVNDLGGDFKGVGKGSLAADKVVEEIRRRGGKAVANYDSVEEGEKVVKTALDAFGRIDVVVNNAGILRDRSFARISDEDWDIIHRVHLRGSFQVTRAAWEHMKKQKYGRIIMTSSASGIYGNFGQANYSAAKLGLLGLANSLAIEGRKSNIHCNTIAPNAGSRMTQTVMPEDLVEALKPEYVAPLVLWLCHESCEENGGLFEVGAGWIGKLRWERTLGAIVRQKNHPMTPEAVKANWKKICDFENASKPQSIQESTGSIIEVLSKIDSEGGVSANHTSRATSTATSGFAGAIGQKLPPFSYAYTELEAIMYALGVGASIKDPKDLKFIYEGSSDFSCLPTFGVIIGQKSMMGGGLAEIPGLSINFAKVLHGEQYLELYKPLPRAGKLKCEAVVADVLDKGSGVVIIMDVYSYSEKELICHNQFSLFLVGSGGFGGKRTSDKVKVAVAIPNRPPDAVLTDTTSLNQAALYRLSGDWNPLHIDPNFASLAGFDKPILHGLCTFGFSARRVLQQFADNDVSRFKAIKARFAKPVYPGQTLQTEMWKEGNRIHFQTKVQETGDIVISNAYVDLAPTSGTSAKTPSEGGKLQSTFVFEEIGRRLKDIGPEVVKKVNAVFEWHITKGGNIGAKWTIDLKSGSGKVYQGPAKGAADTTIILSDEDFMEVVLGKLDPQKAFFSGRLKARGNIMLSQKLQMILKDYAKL
UniProt Q15651: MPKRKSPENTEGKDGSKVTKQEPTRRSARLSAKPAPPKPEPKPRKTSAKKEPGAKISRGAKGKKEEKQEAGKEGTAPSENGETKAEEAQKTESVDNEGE
UniProt Q13151: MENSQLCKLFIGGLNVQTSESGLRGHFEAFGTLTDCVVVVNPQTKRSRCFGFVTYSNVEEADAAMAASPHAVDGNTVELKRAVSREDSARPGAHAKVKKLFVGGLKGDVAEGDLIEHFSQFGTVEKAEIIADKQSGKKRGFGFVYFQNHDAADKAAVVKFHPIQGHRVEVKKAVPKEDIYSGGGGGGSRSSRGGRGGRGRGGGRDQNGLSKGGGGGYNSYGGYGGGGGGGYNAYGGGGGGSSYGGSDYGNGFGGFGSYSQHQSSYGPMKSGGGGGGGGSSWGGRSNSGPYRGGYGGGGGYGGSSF
UniProt Q8TCT9: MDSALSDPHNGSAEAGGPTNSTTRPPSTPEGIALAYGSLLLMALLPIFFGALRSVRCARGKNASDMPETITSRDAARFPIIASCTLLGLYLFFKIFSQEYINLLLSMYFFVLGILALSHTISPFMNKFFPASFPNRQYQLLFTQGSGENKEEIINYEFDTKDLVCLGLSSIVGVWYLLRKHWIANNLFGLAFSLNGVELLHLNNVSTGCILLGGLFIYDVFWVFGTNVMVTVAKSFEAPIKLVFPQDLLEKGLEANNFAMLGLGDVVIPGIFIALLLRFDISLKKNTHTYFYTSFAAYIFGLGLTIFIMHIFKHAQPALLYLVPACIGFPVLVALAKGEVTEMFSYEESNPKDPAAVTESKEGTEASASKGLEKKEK
UniProt Q00613: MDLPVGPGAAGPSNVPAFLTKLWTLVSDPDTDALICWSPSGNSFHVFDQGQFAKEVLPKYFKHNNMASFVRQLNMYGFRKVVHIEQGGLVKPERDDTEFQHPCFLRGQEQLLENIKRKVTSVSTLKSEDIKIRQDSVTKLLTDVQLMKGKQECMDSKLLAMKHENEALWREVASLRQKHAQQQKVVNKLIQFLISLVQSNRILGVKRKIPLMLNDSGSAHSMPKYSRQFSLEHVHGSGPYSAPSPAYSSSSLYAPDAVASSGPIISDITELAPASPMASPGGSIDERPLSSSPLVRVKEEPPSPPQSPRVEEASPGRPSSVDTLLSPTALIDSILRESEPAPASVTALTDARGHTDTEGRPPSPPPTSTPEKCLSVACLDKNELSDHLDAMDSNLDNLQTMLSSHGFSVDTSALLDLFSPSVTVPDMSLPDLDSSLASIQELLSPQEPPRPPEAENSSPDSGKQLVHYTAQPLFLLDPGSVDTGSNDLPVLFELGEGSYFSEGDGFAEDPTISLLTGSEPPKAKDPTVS
UniProt Q0VDF9: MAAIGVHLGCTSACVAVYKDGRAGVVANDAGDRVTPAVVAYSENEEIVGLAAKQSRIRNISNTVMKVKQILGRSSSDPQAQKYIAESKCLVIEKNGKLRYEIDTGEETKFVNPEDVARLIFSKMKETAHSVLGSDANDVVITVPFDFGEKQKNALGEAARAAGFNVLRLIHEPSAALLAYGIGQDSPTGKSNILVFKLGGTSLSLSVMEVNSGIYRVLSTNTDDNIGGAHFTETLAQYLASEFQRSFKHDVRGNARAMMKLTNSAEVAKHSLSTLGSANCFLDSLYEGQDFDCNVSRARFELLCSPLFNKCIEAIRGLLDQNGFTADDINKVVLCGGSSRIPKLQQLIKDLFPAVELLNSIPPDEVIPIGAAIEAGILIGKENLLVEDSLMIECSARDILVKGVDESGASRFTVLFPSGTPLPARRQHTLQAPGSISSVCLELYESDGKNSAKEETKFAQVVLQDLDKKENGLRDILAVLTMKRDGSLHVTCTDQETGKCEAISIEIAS
UniProt P35914: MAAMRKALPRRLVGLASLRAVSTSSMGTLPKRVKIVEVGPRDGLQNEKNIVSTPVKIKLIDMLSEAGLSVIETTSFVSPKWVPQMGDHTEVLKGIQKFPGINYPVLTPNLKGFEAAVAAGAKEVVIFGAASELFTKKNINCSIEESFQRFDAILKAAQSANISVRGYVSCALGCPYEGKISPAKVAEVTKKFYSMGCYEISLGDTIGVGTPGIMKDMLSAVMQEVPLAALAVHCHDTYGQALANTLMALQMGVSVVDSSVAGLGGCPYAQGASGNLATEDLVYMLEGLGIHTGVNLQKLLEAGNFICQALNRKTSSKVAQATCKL
UniProt Q58FG1, whole entry, looked up: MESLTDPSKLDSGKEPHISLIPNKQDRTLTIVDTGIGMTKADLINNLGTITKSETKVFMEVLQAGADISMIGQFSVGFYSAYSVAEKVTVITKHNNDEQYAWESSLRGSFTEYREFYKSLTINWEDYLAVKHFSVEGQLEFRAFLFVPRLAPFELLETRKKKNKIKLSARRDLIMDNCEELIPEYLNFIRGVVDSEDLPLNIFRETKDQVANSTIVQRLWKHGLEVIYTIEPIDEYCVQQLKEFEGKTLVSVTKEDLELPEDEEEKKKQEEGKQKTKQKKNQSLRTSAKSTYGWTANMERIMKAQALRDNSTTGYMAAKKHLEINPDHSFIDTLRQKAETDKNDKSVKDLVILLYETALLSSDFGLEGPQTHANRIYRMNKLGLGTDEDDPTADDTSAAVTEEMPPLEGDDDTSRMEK

log2 fold change, inactive:
IDE (UniProt P14735) -0.006
HMGN5 (UniProt Q5JSK9) 0.07
HSPH1 (UniProt Q92598) 0.001
HSD17B7 (UniProt P56937) -0.029
HSD17B8 (UniProt Q92506) -0.022
HYPK (UniProt Q9NX55) 0.015
HNRNPR isoform 2 (UniProt O43390) 0.047
HKDC1 (UniProt Q2TB90) -0.158
HUWE1, A0A087X1S3 0.101
IBTK (UniProt Q9P2D0) 0.042
HSD17B4 (UniProt P51659) 0.024
HMGN3 (UniProt Q15651) 0.012
HSPG2 (UniProt P98160) 0.007
ICAM4 (UniProt Q14773) -0.057
HNRNPA0 (UniProt Q13151) 0.136
HPRT1 (UniProt P00492) -0.016
HNRNPR (UniProt O43390) 0.106
HSDL2 (UniProt Q6YN16) 0.011
HUWE1 (UniProt Q7Z6Z7) 0.01
HSPB1 (UniProt P04792) 0.017
HINT3 (UniProt Q9NQE9) -0.027
HNRNPA1 (UniProt P09651) 0.046
HM13 (UniProt Q8TCT9) -0.015
HM13 isoform 2 (UniProt Q8TCT9) -0.024
HSP90AA1 isoform 2 (UniProt P07900) 0.025
HSF1 (UniProt Q00613) -0.027
HSBP1 (UniProt O75506) -0.029
HPS1 (UniProt Q92902) -0.181
HSPA14 (UniProt Q0VDF9) -0.018
HMGA1 (UniProt P17096) 0.099
HK1 isoform 2 (UniProt P19367) -0.13
HMGB2 (UniProt P26583) 0.033
HMGCL (UniProt P35914) 0.047
HSP90AA4P (UniProt Q58FG1) 0.143

Quoted from the results shown (three entries):
log2 fold change, inactive:
HSPB1 (UniProt P04792) 0.017
HINT3 (UniProt Q9NQE9) -0.027
HNRNPA1 (UniProt P09651) 0.046

From the supplement of paper PMC10849652
